For experiment [1], the target named is T1, GST-Eps15 EH2 (aa 121-215) (UniProt P42566).
T1 sequence: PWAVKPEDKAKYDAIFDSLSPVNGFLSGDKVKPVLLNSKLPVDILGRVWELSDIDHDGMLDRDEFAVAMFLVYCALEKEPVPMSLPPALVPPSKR
Kind of experiment: pull-down; GST-tagged EH domains immobilised on beads, incubated with lysates from EGFP-Numb expressing HEK293T cells; Western blot; only the target purified. (Immunoblotting shows a protein as a band on a membrane.)

Chains of the proteins cited; added tags and fusions are not shown. Residues count along the entry.
GST-intersectin-1 EH1 (aa 14-108) (Q15811, residues 14-108): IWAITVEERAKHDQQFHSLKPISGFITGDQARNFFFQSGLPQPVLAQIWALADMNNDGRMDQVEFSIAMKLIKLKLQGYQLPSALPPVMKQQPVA
GST-intersectin-1 EH2 (aa 214-309) (Q15811, residues 214-309): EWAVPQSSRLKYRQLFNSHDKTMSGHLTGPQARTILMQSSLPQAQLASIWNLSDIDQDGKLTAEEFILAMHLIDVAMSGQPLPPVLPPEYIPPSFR
UniProt P29323, residues 19-1055: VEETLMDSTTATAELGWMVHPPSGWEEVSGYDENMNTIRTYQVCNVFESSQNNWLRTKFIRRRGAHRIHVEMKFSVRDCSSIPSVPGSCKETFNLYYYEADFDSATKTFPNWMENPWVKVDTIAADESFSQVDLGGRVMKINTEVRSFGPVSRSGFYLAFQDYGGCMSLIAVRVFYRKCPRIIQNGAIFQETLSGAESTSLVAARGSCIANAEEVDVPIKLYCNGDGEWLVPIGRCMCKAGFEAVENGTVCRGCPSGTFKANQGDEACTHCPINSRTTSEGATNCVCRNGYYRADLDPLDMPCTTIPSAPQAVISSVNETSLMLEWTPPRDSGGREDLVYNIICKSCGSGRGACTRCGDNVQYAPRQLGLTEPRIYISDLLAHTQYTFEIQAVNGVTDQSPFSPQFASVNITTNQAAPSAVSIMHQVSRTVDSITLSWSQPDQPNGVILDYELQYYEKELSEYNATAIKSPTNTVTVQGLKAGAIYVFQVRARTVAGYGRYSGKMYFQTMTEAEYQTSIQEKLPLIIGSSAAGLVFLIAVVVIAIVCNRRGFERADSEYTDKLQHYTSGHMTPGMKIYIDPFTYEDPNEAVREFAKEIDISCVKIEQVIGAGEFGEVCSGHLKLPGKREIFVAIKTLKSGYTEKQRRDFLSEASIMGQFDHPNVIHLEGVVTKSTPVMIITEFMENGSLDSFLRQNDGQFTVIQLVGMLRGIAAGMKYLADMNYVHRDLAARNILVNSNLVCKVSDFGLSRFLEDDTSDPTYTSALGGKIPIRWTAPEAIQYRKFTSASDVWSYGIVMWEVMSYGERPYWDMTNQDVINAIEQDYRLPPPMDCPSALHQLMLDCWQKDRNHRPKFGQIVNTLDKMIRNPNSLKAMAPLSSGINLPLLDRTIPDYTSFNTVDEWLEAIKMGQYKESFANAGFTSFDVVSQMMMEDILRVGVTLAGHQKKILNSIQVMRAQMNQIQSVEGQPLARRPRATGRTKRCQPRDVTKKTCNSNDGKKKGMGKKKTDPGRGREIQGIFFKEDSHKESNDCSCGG
UniProt Q00610, residues 2-579: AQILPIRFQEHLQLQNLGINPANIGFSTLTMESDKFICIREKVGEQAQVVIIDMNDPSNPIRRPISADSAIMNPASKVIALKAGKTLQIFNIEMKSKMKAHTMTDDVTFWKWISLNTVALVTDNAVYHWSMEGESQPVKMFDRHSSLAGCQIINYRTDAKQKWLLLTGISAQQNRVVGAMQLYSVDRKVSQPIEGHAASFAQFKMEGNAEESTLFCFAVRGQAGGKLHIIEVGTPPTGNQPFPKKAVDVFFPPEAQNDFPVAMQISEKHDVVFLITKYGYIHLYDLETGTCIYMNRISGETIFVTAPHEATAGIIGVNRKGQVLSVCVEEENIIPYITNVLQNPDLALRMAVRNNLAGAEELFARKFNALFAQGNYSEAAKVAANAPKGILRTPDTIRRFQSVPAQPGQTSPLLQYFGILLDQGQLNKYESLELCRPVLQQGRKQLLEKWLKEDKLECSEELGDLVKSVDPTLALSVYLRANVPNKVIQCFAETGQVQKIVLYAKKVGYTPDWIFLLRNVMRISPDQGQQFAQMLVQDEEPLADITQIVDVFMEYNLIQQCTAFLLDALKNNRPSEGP
UniProt P62944, residues 616-937: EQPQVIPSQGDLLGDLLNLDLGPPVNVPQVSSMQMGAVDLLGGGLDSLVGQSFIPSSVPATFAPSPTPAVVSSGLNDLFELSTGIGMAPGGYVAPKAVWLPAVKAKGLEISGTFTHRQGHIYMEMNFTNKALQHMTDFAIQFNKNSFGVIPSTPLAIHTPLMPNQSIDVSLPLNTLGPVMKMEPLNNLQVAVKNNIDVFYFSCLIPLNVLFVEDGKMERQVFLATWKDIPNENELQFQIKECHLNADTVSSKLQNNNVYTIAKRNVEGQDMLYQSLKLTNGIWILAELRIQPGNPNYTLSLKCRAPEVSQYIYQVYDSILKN

Experiment [2] concerns the target GST-intersectin-1 EH1 (aa 14-108) (UniProt Q15811). The description is as above.
For experiment [3], the target named is GST-intersectin-1 EH2 (aa 214-309) (UniProt Q15811). The experiment is described as above.
Experiment [4] concerns the target T2, GST-intersectin-2 EH1 (aa 14-108) (UniProt Q9NZM3).
T2 sequence: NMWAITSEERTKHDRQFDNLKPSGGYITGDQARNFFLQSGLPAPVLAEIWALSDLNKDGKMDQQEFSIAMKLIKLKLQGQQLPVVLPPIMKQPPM
The description is as above.

For experiment [5], the target named is T3, GST-intersectin-2 EH2 (aa 236-331) (UniProt Q9NZM3).
T3 sequence: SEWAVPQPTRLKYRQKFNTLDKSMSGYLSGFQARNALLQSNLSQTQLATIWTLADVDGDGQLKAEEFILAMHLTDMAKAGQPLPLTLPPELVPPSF
Described as above.

The target in another experiment is Flag-EphB2 (UniProt P29323). Kind of experiment: co-IP; HEK293T cells expressing Flag-EphB2, EGFP-Numb and myc-Eps15R; cells stimulated with 1 μg/mL pre-clustered ephrinB1-Fc for 20 min at 37°C before lysis; Flag antibody for immunoprecipitation; Western blot.
In experiment [6] the target is GST-clathrin heavy chain terminal domain (aa 2-579) (human) (UniProt Q00610). Kind of experiment: pull-down; GST-clathrin heavy chain domains on beads incubated with detergent extracts of Sf9 cells expressing full-length His-Eps15R; immunoblot for the His tag; only the target purified.
In experiment [7] the target is GST-AP2-β2-appendage with hinge (aa 616-937) (rat) (UniProt P62944). The experiment can be described thus: pull-down; GST-AP2-β-appendage with hinge on beads incubated with lysates from HeLa cells expressing EGFP-Eps15R wild type or the F703A, F722A, F728A mutant; clathrin and EGFP immunoblotting; only the target purified.

Data on four molecules can be found in PMC5836524.

Where a chain is given by its changes, count along the chain named. In names and notes the source's numbering stands. These are yes or no findings as the source states them, for the method shown. Binding seen in cells or lysates may run through a third protein. Some binding calls cover weakened binding; strength is not graded here. Where a sequence is shown, tags or fusion partners need not be part of it.

B1: EGFP-Numb (protein, UniProt P49757 1-651)
chain: MNKLRQSFRRKKDVYVPEASRPHQWQTDEEGVRTGKCSFPVKYLGHVEVDESRGMHICEDAVKRLKAERKFFKGFFGKTGKKAVKAVLWVSADGLRVVDEKTKDLIVDQTIEKVSFCAPDRNFDRAFSYICRDGTTRRWICHCFMAVKDTGERLSHAVGCAFAACLERKQKREKECGVTATFDASRTTFTREGSFRVTTATEQAEREEIMKQMQDAKKAETDKIVVGSSVAPGNTAPSPSSPTSPTSDATTSLEMNNPHAIPRRHAPIEQLARQGSFRGFPALSQKMSPFKRQLSLRINELPSTMQRKTDFPIKNAVPEVEGEAESISSLCSQITNAFSTPEDPFSSAPMTKPVTVVAPQSPTFQANGTDSAFHVLAKPAHTALAPVAMPVRETNPWAHAPDAANKEIAATCSGTEWGQSSGAASPGLFQAGHRRTPSEADRWLEEVSKSVRAQQPQASAAPLQPVLQPPPPTAISQPASPFQGNAFLTSQPVPVGVVPALQPAFVPAQSYPVANGMPYPAPNVPVVGITPSQMVANVFGTAGHPQAAHPHQSPSLVRQQTFPHYEASSATTSPFFKPPAQHLNGSAAFNGVDDGRLASADRHTEVPTGTCPVDPFEAQWAALENKSKQRTNPSPTNPFSSDLQKTFEIEL
Consider B1, for which the binding entry in experiment [1] is “binds”; in experiment [2], “no binding”; in experiment [3], “no binding”; in experiment [4], “no binding”; in experiment [5], “no binding”; in the experiment with Flag-EphB2, “binds”.

B2: full-length His-Eps15R (protein, UniProt Q60902 1-907)
chain: MAAPLVPLSQQIPGGNPLYESYYKQVDPAYTGRVGASEAALFLKKSGLSDIILGKIWDLADPEGKGFLDKQGFYVALRLVACAQSGHEVTLSSLSLTMPPPKFHDTSSPLMATQSSAETHWAVRVEEKAKFDGIFESLLPVNGLLSGDKVKPVLMNSKLPLDVLGRVWDLSDIDKDGHLDRDEFAVAMHLVYRALEKEPVPSILPPPLIPPSKRKKTVFAGAVPVLPASPPPKDSLRSTPSHGSVSSLNSTGSLSPKHSVKQPPVAWVVPVADKMRFDEIFLKTDLDLDGYVSGQEVKEIFMHSGLTQNLLAHIWALADTRQTGKLSKEQFALAMYFIQQKVSKGIDPPQVLSPDMVPPSERGTPIPDSSSTLASGEFTGVKELDDISQEIAQLQREKYSLEQDIREKEEAIRQKTSEVQELQNDLDRETSSLQELEAQKQDAQDRLDEMDQQKAKLRDMLSDVRQKCQDETQTISSLKTQIQSQESDLKSQEDDLNRAKSELNRLQQEETQLEQSIQAGRAQLETILRSLKCTQDDINQARSKLSQLQESHLEAHRSLEQYDQVPDGVSGTSLPDLATLNEGILLAERGGFGAMDDPFKNKALLFSNNSQELHPDPFQAEDPFKSDPFKGADPFKGDPFQSDPFSEQQTAATDPFGGDPFKESDPFHSSSSDDFFKKQTKNDPFTSDPFTKNPSLPSKLDPFESSDPFSSSSISSKGSDPFGTLDPFGSSSFSSAEGFADFSQMSKPPPSGPFSSSLGGTGFSDDPFKSKQDTPALPPKKPAPPRPKPPSGQSTPVSQLGSSDFPESPDPFQPLGADSGDPFQNKKGFGDPFSGKDPFAPSSSAKPPKTSSSGFADFTSFGNEEQQLAWAKRESEKAEQERLARLRRQEQEDLELAIALSKADMPA
B2: the binding result in experiment [6] was “binds”.

B3: EGFP-Eps15R F703A/F722A/F728A triple mutant (protein, UniProt Q60902 1-907)
chain: B2 chain with F703A, F722A, F728A
For the molecule B3, the binding result in experiment [7] was “binds”.

B4: EGFP-Eps15R wild type, full-length (aa 1-907) (protein, UniProt Q60902 1-907)
chain: B2 chain
Consider B4, for which the binding result in experiment [7] is given as “binds”.
